Results taken from patent publication US11110105B2, “Compounds, composition and uses thereof for treating cancer” (INSTITUT GUSTAVE ROUSSY, priority 2017, dated 2021).
Entries after “also recorded” stand apart in the source; their conditions may differ. At least one compound was matched to its structure with a doubt left.

How the values were obtained:
[1] = system: H2-K^b molecules at the cell surface of MCA205 cells; experiment: Flow cytometry of H2-K^b expression, MCA205; assay type: cell-based, mouse
From the text: Flow cytometry analyses of H2-K^b expression on MCA205 and B16F10 cells treated with (A) isoginkgetin. Flow cytometry analyses of transiently expressed H2-K^b expression on A375, A549 and MRC5 cells treated with (B) isoginkgetin.

[2] = system: splicing of the Globin-SL8-intron gene product in B16F10 cells; experiment: qRT-PCR of unspliced/spliced globin-SL8-intron RNA, B16F10; assay type: cell-based, mouse; conditions: 15 μM isoginkgetin, 35 μM IP2 or 35 μM M2P2, 48 hours
Method: RNA was extracted and qRT-PCR was performed with primers amplifying the unspliced (intron) and the spliced (exon) globin-SL8-intron RNA. Data are given as mean ±SEM of the ratio of 2^−ΔΔCt intron and 2^−ΔΔCt exon of at least three independent experiments. […] Data are express as mean ±SEM of the percentage of viable cells compared to the control condition of at least three independent experiments. *P<0.05, **P<0.01, ***P<0.001 (unpaired student t test).
In addition, it has been shown that cancer cells can acquire deficiencies in the splicing machinery that benefit their growth, for example by preventing the expression of tumor suppressor genes.

[3] = system: B16F10 globin-SL8-intron (B16F10 GI) tumor; experiment: Tumor challenge, B16F10 globin-SL8-intron in immunocompetent C57BL/6 mice; assay type: in vivo, mouse; conditions: days 5, 10 and 15
Method: (A) Experimental settings. Growth of (B) sarcoma MCA205 or (C) melanoma B16F10 cells that both stably express the globin-SL8-intron construct or (D) MCA205 Wild Type (WT) or (E) B16F10 WT cells that were subcutaneously inoculated on the flank of immunocompetent C57BL/6 mice injected intraperitoneally with 12 mg/kg or 18 mg/kg of isoginkgetin at days 5, 10 and 15 after inoculation. Tumor size was assessed every 3 to 4 days until reaching the established ethical endpoints. Each line represents the tumor size in area (mm^2) of 6 mice in each group. Size in area (mm^2) of (F) MCA205 globin-SL8-intron, (G) B16F10 globin-SL8-intron, (H) MCA205 WT or (I) B16F10 WT tumors subcutaneously inoculated on the flank of immunodeficient Nu/Nu Nude mice injected intraperitoneally with 18 mg/kg of isoginkgetin at days 5, 10 and 15 after inoculation. Data are presented at the day before the endpoints are reached.
Data are given as mean ±SEM. *P<0.05, **P<0.01, ***P<0.001 (unpaired student t test). […] Tumor size was assessed every 3 to 4 days until reaching the established ethical endpoints. […]
C57B1/6J female mice are obtained from Harlan. […] Area of the tumor is recorded every 3 to 4 days until day 27. […] Results are expressed as mean ±SEM. *p<0.05, **P<0.01, ***P<0.001 (ANOVA with Tukey's multiple comparison test comparing all groups).

[4] = system: normal human lung fibroblast MRC5 cell line; experiment: B3Z SL8-specific T-cell activation assay, MRC5; assay type: cell-based; conditions: MRC5 expressing H2-K^b and Globin-SL8-intron; 2,5 μM or 6,25 μM, 18 hours
[5] = system: mouse sarcoma cell line MCA205; experiment: B3Z SL8-specific T-cell activation assay, MCA205; assay type: cell-based; conditions: 15 μM or 25 μM, 18 hours; for exon-derived SL8 antigen presentation (B3Z activation): MCA205, Globin-SL8-exon; for intron-derived SL8 antigen presentation (B3Z activation): MCA205, Globin-SL8-intron, isoginkgetin 6,25 μM
Method: B3Z SL8-specific T-cell activation after co-culture with (A) human melanoma A375, human lung carcinoma A549 or normal human lung fibroblast MRC5 cell lines, all transiently expressing the intron-derived SL8 peptide and the H2-K^b molecules and treated upstream with 2,5 μM or 6,25 μM isoginkgetin for 18 hours; or with (B) mouse sarcoma MCA205 or mouse melanoma B16F10 cell lines both transiently expressing the intron-derived SL8 peptide and treated upstream with 6,25 μM, 15 μM or 25 μM isoginkgetin for 18 hours. B3Z activation after co-culture with MCA205 or B16F10 cells that both transiently express (C) the exon-derived SL8 peptides or (D) the Ova cDNA construct, which doesn't need to be spliced, treated upstream with 6,25 μM, 15 μM or 25 μM isoginkgetin for 18 hours. Free SL8 peptides were added in each condition to ensure that T-cell assays were carried out at non-saturated conditions and that the expression of MHC-I molecules was taking into account in the results. Each graph is one representative of at least four independent experiments.
Data are given as mean ±SEM. *P<0.05, **P<0.01, ***P<0.001 (unpaired student t test). […] Tumor size was assessed every 3 to 4 days until reaching the established ethical endpoints. Each line represents the tumor size in area (mm^2) of at least 6 mice in each group. Data are given as mean ±SEM. *p<0.05, **p<0.01 (ANOVA with Tukey's multiple comparison test comparing all groups). […] A Log-rank (Mantel-Cox) test was performed.
MCA205 and B16F10 mouse cell lines are transfected with the plasmid YFP-Globin-SL8-intron or with the PCDNA3 empty plasmid (negative control) with the transfection reagent jetPRIME (Ozyme) or GeneJuice (Millipore) respectively according to each manufacturer protocol. A375, A549 and MRC5 human cell lines are transfected with the plasmid encoding mouse H2-Kb molecule for 12 hours followed by the transfection of the plasmid YFP-Globin-SL8-intron with the transfection reagent jetPRIME (Ozyme) according to the manufacturer protocol. […] Then cells are washed three times with PBS 1X and 5×10^4 cells are co-cultured with 1×10^5 B3Z cells. In positive control wells, 4 μg/ml of synthetic peptide SL8 is added. Cells are then incubated at 37° C. with 5% CO2 overnight. Cells are centrifuged at 1200 rpm for 5 min, washed twice with PBS 1X and lysed for 5 min at 4° C. under shaking with the following lysis buffer: 0.2% TritonX-100, 0.2% DTT, 0.5M K2HPO4, 0.5M KH2PO4. The lysate is centrifuged at 3000rpm for 10min and the supernatant is transferred to a 96-well optiplate (Packard Bioscience, Randburg, SA). The revelation buffer containing 33 mM of methylumbellifery β-D-galactopyranoside (MUG) is added and the plate is incubated at room temperature for 3 hours. Finally, the β-galactosidase activity is measured using the FLUOstar OPTIMA (BMG LABTECH Gmbh, Offenburg, Germany). Results are expressed as mean ±SEM. *P<0.05, **P<0.01, ***P<0.001 (unpaired student t test).

[6] = system: human melanoma cell line A375; experiment: B3Z SL8-specific T-cell activation assay, A375; assay type: cell-based; conditions: A375 expressing H2-K^b and Globin-SL8-intron, 2,5 μM or 6,25 μM, 18 hours

COc1ccc(-c2cc(=O)c3c(O)cc(O)c(-c4cc(-c5cc(=O)c6c(O)cc(O)cc6o5)ccc4OC)c3o2)cc1 [Isoginkgetin, isoginkgetin]
expression of the H2-K^b molecules at the cell surface [1]: decreases | splicing of Globin-SL8-intron RNA (ratio unspliced/spliced, qRT-PCR) [2]: increases the presence of non-spliced RNA products | tumor growth ([3]; 18 mg/kg intraperitoneally): reduction of B16F10 GI tumor growth was similar | tumor growth ([3]; isoginkgetin 12 mg/kg or 18 mg/kg intraperitoneally): significantly slows down tumor growth | intron-derived SL8 antigen presentation (B3Z activation) [4]: increases intron-derived-SL8 antigen presentation | exon-derived SL8 antigen presentation (B3Z activation) ([5]; 6,25 μM): causes an increase in exon and intron-PTPs-dependent antigen presentation | exon-derived SL8 antigen presentation (B3Z activation) ([5]; 6,25 μM, listed as isoginkgetin): increases exon-derived-SL8 antigen presentation | intron-derived SL8 antigen presentation (B3Z activation) [5]: elicits an increase in the PTPs-dependent antigen presentation, with a dose dependent effect; also recorded: causes an increase in exon and intron-PTPs-dependent antigen presentation | intron-derived SL8 antigen presentation (B3Z activation) ([5]; listed as isoginkgetin): elicits an increase in the intron-derived-SL8 antigen presentation, in a dose dependent manner | production of the SL8 epitope encoded by the Ova cDNA construct (B3Z activation) ([5]; MCA205, Ova cDNA (no splicing needed), 6,25 μM): has no effect on the production of the SL8 epitope encoded by the Ova cDNA construct | intron-derived SL8 antigen presentation (B3Z activation) [6]: causes an increase in intron-PTPs-dependent antigen presentation | intron-derived SL8 antigen presentation (B3Z activation) ([6]; listed as isoginkgetin): increases intron-derived-SL8 antigen presentation
